PubChem BioAssay AID504764 | Drosophila RNAi Screening Center | 2011
Assay: 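Genome-wide screen for regulators of Notch-driven gene expression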 (primary screen). Cells: Drosophila Kc167 cells. Reagent: long dsRNA against Drosophila genes. Timing: about 5 days (4 days dsRNA, then 24 h after transfection). Treatment: transfection of constitutively active membrane-tethered Notch lacking the extracellular domain, read 24 h later. Detection: 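Light from a Notch-responsive E(spl)m3 luciferase reporter under active Notch, with control-promoter and no-Notch reporter wells to normalise; raw counts from paired wells a and b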. Direction: induced reporter light, run 1, well a and induced reporter light, run 1, well b: higher = more light from the Notch target reporter with active Notch; control promoter light, run 1, well a and control promoter light, run 1, well b: higher = more light from the viral control promoter (cell number, transfection, viability); uninduced reporter light, run 1, well a: higher = more light from the Notch target reporter without active Notch. Hit rule: 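Hit if the duplicate-averaged log2 ratio of induced to control-promoter light gives a plate-wise z beyond ±2, or induced to uninduced beyond ±1.8; weak-control or discordant-duplicate wells dropped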. Calls: active = modifier hit (raised or lowered Notch signal); inactive = not a hit.
The screen tested about 22,000 reagents; shown is a random part of those with a known target gene and a result. Over the whole deposit, 403 (1.9%) got an active call. 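Unnormalised raw counts per well; ratio z-scores behind the hit calls and whether each hit raises or lowers signal are not deposited.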 Not given: the amount of reagent.

Silencing of rasp [DRSC08191] gave: induced reporter light, run 1, well a = 1.06e5; induced reporter light, run 1, well b = 1.73e5; control promoter light, run 1, well a = 2.37e5; control promoter light, run 1, well b = 2.05e5; uninduced reporter light, run 1, well a = 7628; inactive.
After knock-down of CG13693 [DRSC00362] the results were induced reporter light, run 1, well a = 2.32e5; induced reporter light, run 1, well b = 1.36e5; control promoter light, run 1, well a = 1.37e5; control promoter light, run 1, well b = 1.09e5; uninduced reporter light, run 1, well a = 12045; inactive.
CG30495 [DRSC06703] gave induced reporter light, run 1, well a = 1.75e5; induced reporter light, run 1, well b = 1.67e5; control promoter light, run 1, well a = 2.40e5; control promoter light, run 1, well b = 2.09e5; uninduced reporter light, run 1, well a = 16315; inactive.
Knock-down of CG11044 [DRSC06026] resulted in: induced reporter light, run 1, well a = 92495; induced reporter light, run 1, well b = 68410; control promoter light, run 1, well a = 1.03e5; control promoter light, run 1, well b = 91410; uninduced reporter light, run 1, well a = 6032; inactive.
For CG11257 [DRSC06068], the values are induced reporter light, run 1, well a = 98775; induced reporter light, run 1, well b = 1.02e5; control promoter light, run 1, well a = 1.33e5; control promoter light, run 1, well b = 1.42e5; uninduced reporter light, run 1, well a = 9535; inactive.
CG17839 [DRSC10290] showed induced reporter light, run 1, well a = 1.71e5; induced reporter light, run 1, well b = 1.82e5; control promoter light, run 1, well a = 2.56e5; control promoter light, run 1, well b = 2.12e5; uninduced reporter light, run 1, well a = 11765; inactive.
CG17839 [DRSC10291] gave induced reporter light, run 1, well a = 1.97e5; induced reporter light, run 1, well b = 1.75e5; control promoter light, run 1, well a = 2.13e5; control promoter light, run 1, well b = 2.47e5; uninduced reporter light, run 1, well a = 7850; inactive.

2 entries from above, ordered by “induced reporter light, run 1, well b”, highest first:
CG30495 [DRSC06703] — induced reporter light, run 1, well a = 1.75e5; induced reporter light, run 1, well b = 1.67e5; control promoter light, run 1, well a = 2.40e5; control promoter light, run 1, well b = 2.09e5; uninduced reporter light, run 1, well a = 16315; call = inactive
CG11044 [DRSC06026] — induced reporter light, run 1, well a = 92495; induced reporter light, run 1, well b = 68410; control promoter light, run 1, well a = 1.03e5; control promoter light, run 1, well b = 91410; uninduced reporter light, run 1, well a = 6032; call = inactive

The listing continues:
Depletion of CG32017 [DRSC17183] gave: induced reporter light, run 1, well a = 51185; induced reporter light, run 1, well b = 58655; control promoter light, run 1, well a = 71815; control promoter light, run 1, well b = 84230; uninduced reporter light, run 1, well a = 4515; inactive.
CG18540 [DRSC06767] gave induced reporter light, run 1, well a = 48020; induced reporter light, run 1, well b = 37135; control promoter light, run 1, well a = 44760; control promoter light, run 1, well b = 39400; uninduced reporter light, run 1, well a = 3565; inactive.
With knock-down of Pex12 (Peroxin 12) [DRSC00622], the record shows induced reporter light, run 1, well a = 1.28e5; induced reporter light, run 1, well b = 1.05e5; control promoter light, run 1, well a = 1.38e5; control promoter light, run 1, well b = 68815; uninduced reporter light, run 1, well a = 9250; inactive.
With knock-down of AlaRS (Alanyl-tRNA synthetase) [DRSC01851] the results were induced reporter light, run 1, well a = 58445; induced reporter light, run 1, well b = 57345; control promoter light, run 1, well a = 46540; control promoter light, run 1, well b = 62930; uninduced reporter light, run 1, well a = 5665; inactive.
Silencing of CG14957 [DRSC08416] came out at: induced reporter light, run 1, well a = 62625; induced reporter light, run 1, well b = 50835; control promoter light, run 1, well a = 85935; control promoter light, run 1, well b = 1.26e5; uninduced reporter light, run 1, well a = 4750; inactive.
